Data published in PubChem BioAssay AID1671190 (National Center for Advancing Translational Sciences (NCATS), 2021).
Where “and” joins values, the source holds several entries; their conditions need not be identical. Equal entries are not always repeated. In all, about 580,000 compounds went through this assay and about 6,100 (1.1%) were called active. The shares of active, inactive and inconclusive entries below differ from those in the screen. Calls come from the whole dose curve; as a rule, active = well fitted inhibition curve with a large enough effect; inconclusive = small, poorly fitted or top-dose-only effect, or another doubt; inactive = no such curve, though single readings can be large or run the other way. Potencies beside an inconclusive call are fits to weak or partial responses and may not hold up.

The chains behind the UniProt entries cited, without tags or fusion partners. Where a name states a change or a piece, a line headed by the entry shows the natural chain unless it says otherwise.
UniProt P18054: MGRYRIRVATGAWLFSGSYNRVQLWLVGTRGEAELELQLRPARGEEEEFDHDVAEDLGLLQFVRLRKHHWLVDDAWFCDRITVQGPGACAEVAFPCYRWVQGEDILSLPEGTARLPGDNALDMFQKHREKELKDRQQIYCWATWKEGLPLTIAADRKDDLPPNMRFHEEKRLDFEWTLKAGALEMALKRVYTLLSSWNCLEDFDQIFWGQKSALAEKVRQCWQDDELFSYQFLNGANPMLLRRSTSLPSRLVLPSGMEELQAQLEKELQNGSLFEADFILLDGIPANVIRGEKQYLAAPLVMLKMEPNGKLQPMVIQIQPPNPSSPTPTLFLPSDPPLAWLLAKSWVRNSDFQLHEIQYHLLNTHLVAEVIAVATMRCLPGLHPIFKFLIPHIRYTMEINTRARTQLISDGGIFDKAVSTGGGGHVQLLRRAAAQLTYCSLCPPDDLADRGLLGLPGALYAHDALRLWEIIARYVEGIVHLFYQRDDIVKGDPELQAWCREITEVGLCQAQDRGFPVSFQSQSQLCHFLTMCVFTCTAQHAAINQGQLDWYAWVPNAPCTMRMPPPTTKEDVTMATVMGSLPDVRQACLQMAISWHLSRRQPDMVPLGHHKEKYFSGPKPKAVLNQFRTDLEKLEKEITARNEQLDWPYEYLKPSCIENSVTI

The compounds below were run against Polyunsaturated fatty acid lipoxygenase ALOX12 (Homo sapiens) (UniProt P18054) (assay: Primary qHTS assay for inhibitors of human arachidonate 12S-lipoxygenase (ALOX12): Round 2). Conditions: purified 12hLO, xylenol orange hydroperoxide absorbance; series mostly up to 108 µM.
Procedure, shortened: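 Hydroperoxide product was detected by ferrous iron/xylenol orange as the 573 to 405 nm absorbance ratio. Arachidonic acid at 40 uM (final) was turned over for 30 min at room temperature by 150 nM human 12hLO, pH 7.0 Hepes buffer, after 15 min compound preincubation.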
Potency is the fitted concentration of half-maximal effect.

Structure (SMILES)	Potency
Fc1ccc(C2=NN(c3cccc(C(F)(F)F)c3)C(c3ccc(F)cc3)C2)cc1 (stereo not given)	inactive
CCCC(c1nnnn1C(C)(C)C)N1CCN(c2ccccc2)CC1 (stereo not given)	inactive
Cc1ccc(F)c(S(=O)(=O)NC(=O)C2(C)CCN2C(=O)COc2ccc(Cl)cc2)c1 (stereo not given)	inconclusive: 79.4 µM [inhibitor, partial curve, poor fit]
CN(C(=O)COC(=O)c1cc(-c2ccco2)nc2ccccc12)C1CCS(=O)(=O)C1 (stereo not given)	inconclusive: 44.7 µM [inhibitor, partial curve, poor fit]
COC(=O)c1ccccc1SCC(=O)Nc1cccc2c(=O)[nH][nH]c(=O)c12	inconclusive: 126 µM [inhibitor, partial curve, poor fit]
Cc1[nH]n(C(N)=S)c(=O)c1N=Nc1ccc(S(=O)(=O)N2CCCCCC2)cc1	inconclusive: 22.4 µM [inhibitor, partial curve, poor fit]
CCC(=O)Nc1ccccc1-c1nc2ccccc2n(C(C)C(=O)Nc2ccc(OC)cc2)c1=O (stereo not given)	inactive
O=C1NCc2ccccc2CC12CCN(CCc1ccccc1)CC2	inconclusive: 35.5 µM [inhibitor, full curve]
CC(C)CNc1nc(-c2ccc(S(=O)(=O)N3CCCCCC3)cc2)cs1	inactive
CCN(CC)C(=O)C1=C(C)N(Cc2ccc(F)cc2)C(=O)C(CC(=O)NC(c2ccccc2)c2ccccc2)C1 (stereo not given)	inconclusive: 89.1 µM [inhibitor, single point]
Cc1ccc(NC(=O)Cn2c(=O)oc3cc(S(=O)(=O)N4CCC(C)CC4)ccc32)cc1Cl	inconclusive: 79.4 µM [inhibitor, partial curve, poor fit]
c1ccc2oc(C3=NNC(=NC4CC4)SC3)cc2c1	inconclusive: 56.2 µM [inhibitor, partial curve, poor fit]
C/C=C/C=C/CO	inactive
COc1ccc(C(=O)NC(=S)NCCO)cc1Br	inconclusive: 28.2 µM [inhibitor, partial curve, poor fit]
O=C(O)c1ccc(-c2ccc(/C=N/Nc3ccc([N+](=O)[O-])cc3)o2)cc1	inconclusive: 50.1 µM [inhibitor, partial curve, poor fit]
COc1cccc(/C=N/NC(=O)CSc2ccccc2C)c1OC	inactive
COc1ccc(/C=C/C(=O)c2ccc3c(c2)OCO3)cc1OC	inconclusive: 50.1 µM [inhibitor, partial curve, poor fit]
N#Cc1cccc(NC(=O)N[C@H]2[C@H](O)[C@@H](N3CCC(Cc4ccccc4)CC3)[C@@H]3OC[C@H]2O3)c1	active: 44.7 µM
COCCOC(=O)c1sc(=S)n(CCOC)c1N	inconclusive: 31.6 µM [inhibitor, partial curve]
O=C(N[C@@H](Cc1ccc(Br)cc1)C(=O)O)OCC1c2ccccc2-c2ccccc21	inconclusive: 70.8 µM [inhibitor, partial curve, poor fit]
CCOC(=O)c1cnc2ccc(Cl)cc2c1NCCN(C)C	inconclusive: 56.2 µM [inhibitor, partial curve, poor fit]
O=C(NCc1cccc(Cl)c1)c1ccc(CN2C(=O)NC3(CCOCC3)C2=O)cc1	inconclusive: 3.16 µM [inhibitor, full curve]

Structure (SMILES)	Potency
COc1ccc(Cn2c(C)ccc2C)cc1	inactive
CC(=O)N1CCN(C(=O)c2cc(CC(C)C)[nH]c(=O)n2)CC(O)C1 (stereo not given)	inconclusive: 2.82 µM [inhibitor, full curve, poor fit]
Cc1ccccc1NC(=O)C(C#N)=C1CCCC1	inactive
CCOc1ccccc1C1C(C#N)=C(N)SC(N)=C1C#N	inconclusive: 79.4 µM [inhibitor, partial curve, poor fit]
Cc1ccc(CNC(=O)CN(c2ccc(C)cc2)S(=O)(=O)c2c(C)n[nH]c2C)cc1	inconclusive: 63.1 µM [inhibitor, partial curve, poor fit]
Cc1ccc2c(c1)CN(C(=O)CC(c1ccccc1)c1ccco1)CC(C)O2 (stereo not given)	inconclusive: 126 µM [inhibitor, single point]
Nc1nonc1-c1nc2ccccc2n1CC(=O)N/N=C\c1ccc(-c2ccc(Cl)cc2)o1	inactive
CCc1ccc(C(=O)c2sc(Nc3cccc(SC)c3)nc2N)cc1	inconclusive: 8.91 µM [inhibitor, full curve, poor fit]
Cn1c(=O)[nH]c(=O)c2c1nc(CN1CCN(c3ccc(F)cc3)CC1)n2CCc1ccccc1	inconclusive: 44.7 µM [inhibitor, partial curve, poor fit]
O=C(OCc1cc(-c2ccccc2)no1)c1ccc2ccccc2n1	inconclusive: 39.8 µM [inhibitor, partial curve, poor fit]
Cc1cc(CS(=O)(=O)Cc2ccc(F)cc2Cl)no1	inactive
CCOc1ccc(CN(C(=O)/C=C/c2ccco2)C2CCS(=O)(=O)C2)cc1 (stereo not given)	inconclusive: 44.7 µM [inhibitor, partial curve, poor fit]
CCCC1CCC(c2ccc(C(=O)Oc3cncc(Cl)c3)cc2)CC1 (stereo not given)	inconclusive: 50.1 µM [inhibitor, partial curve, poor fit]
O=C(Nc1ccc2c(c1)OCO2)c1ccccc1SCC(=O)N1CCCC1	inconclusive: 50.1 µM [inhibitor, partial curve, poor fit]
Nc1c(C(=O)N/N=C/c2cccnc2)oc2nc(-c3ccccc3)cc(-c3ccco3)c12	inconclusive: 89.1 µM [inhibitor, partial curve, poor fit]
CCc1nc(NCCN(C)C)c(C#N)c2c1CCCC2	inactive
CC(=O)c1ccc(NC(=S)Nc2cccc(Cl)c2C)cc1	inconclusive: 28.2 µM [inhibitor, partial curve]
Cc1oc(-c2ccccc2)nc1C(=O)Nc1nc(C(C)C)cs1	inconclusive: 39.8 µM [inhibitor, partial curve]
Cc1cccnc1NC(=O)C1CC(=O)N(Cc2ccc(F)cc2)C1 (stereo not given)	inconclusive: 0.0891 µM [inhibitor, full curve, poor fit]
Cc1ccc(-c2ccnc3nc(-n4cccc4)nn23)o1	inactive
CCNc1ncc2nc(-c3cn(C)c4ccccc34)c(=O)n(C)c2n1	inconclusive: 28.2 µM [inhibitor, single point]
CC(=O)c1ccc2noc(-c3ccc(C)cc3)c2c1	inconclusive: 141 µM [inhibitor, single point]

Structure (SMILES)	Potency
COc1ccccc1C(=O)Nc1cc(-c2ccc(C)cc2)no1	inactive and inconclusive: 63.1 µM [inhibitor, partial curve, poor fit]
CSc1ccc(NC(=O)c2ccc(F)c(F)c2)cc1	inconclusive: 79.4 µM [inhibitor, single point]
Cc1ccc(S(=O)(=O)Nc2cc(C(C(=O)OC(C)C)C(=O)C(F)(F)F)c(O)c3ccccc23)c(C)c1 (stereo not given)	inconclusive: 44.7 µM [inhibitor, partial curve, poor fit]
CN(Cc1cccnc1)C1CCOc2ccccc21 (stereo not given)	inactive
CC(C)(C)OC(=O)N1CCC[C@H]1c1nnc(SCc2ccc(Cl)cc2)o1	inactive
CC(C)CNC(=O)C1N(C(C)C)C(=O)C12CCCC2 (stereo not given)	inactive
CCc1ccc(OCC(=O)Nc2ccc(-c3cc4ccccc4oc3=O)c(OC)c2)cc1	inactive
COC(=O)CCCNC(=O)CCc1nnc(-c2ccc(-c3ccccc3)cc2)o1	inactive
Cc1cc(Cl)c(S(=O)(=O)N2CCSCC2)cc1OCC(=O)NC1CCCCC1	inactive
CCOc1ccc(CCNC(=O)CCn2c(=O)c3cccn3c3cccnc32)cc1	inconclusive: 100 µM [inhibitor, partial curve, poor fit]
S=c1[nH]c(-c2ccccc2)cn1/N=C/c1cccnc1	inconclusive: 31.6 µM [inhibitor, partial curve, poor fit]
O=C(NCCCc1ccccn1)c1ccc(C2CCCNC2)cc1 (stereo not given)	inconclusive: 15.8 µM [inhibitor, full curve, poor fit]
CC1(C)C=Cc2c(ccc3c2OC[C@@H](c2ccc(O)cc2O)C3)O1	inconclusive: 50.1 µM [inhibitor, partial curve, poor fit]
Cc1cc(C)c(-n2c(C)cc(/C=C3/NC(=O)NC3=O)c2C)c(C)c1	inconclusive: 112 µM [inhibitor, partial curve, poor fit]
CC(C)C[C@H]1CNC(=S)N1CC1CCN(CCC23CC4CC(CC(C4)C2)C3)CC1	inconclusive: 50.1 µM [inhibitor, partial curve, poor fit]
Cc1ccc2c(C)c(C)c(=O)n(C)c2c1	inactive
CCOC1=C2[C@H](c3ccccc3)N(S(=O)(=O)c3ccc(C)cc3)[C@H](C(C)C)[C@H]2C(C#N)(C#N)C(C#N)(C#N)C1	inconclusive: 100 µM [inhibitor, single point]
COC(=O)COc1ccccc1C(=O)Nc1ccc(OC)cc1	inactive
CCN(CC)C(=O)C1=C(C)N(Cc2ccc(C(C)(C)C)cc2)C(=O)C(CC(=O)NCC2CCCCC2)C1 (stereo not given)	inconclusive: 50.1 µM [inhibitor, partial curve, poor fit]
COc1cccc(CC(=O)NC2CCCN(Cc3ccc(Cl)cc3)C2)c1 (stereo not given)	inconclusive: 14.1 µM [inhibitor, partial curve, poor fit]
O=C1N/C(=C/c2ccc(N3CCOCC3)o2)C(=O)N1c1cccc(Cl)c1	inconclusive: 56.2 µM [inhibitor, partial curve, poor fit]

Shown as a markdown table: 4 of the compounds above.

| Structure (SMILES) | Potency |
| --- | --- |
| CC(C)(C)OC(=O)N1CCC[C@H]1c1nnc(SCc2ccc(Cl)cc2)o1 | inactive |
| COC(=O)CCCNC(=O)CCc1nnc(-c2ccc(-c3ccccc3)cc2)o1 | inactive |
| S=c1[nH]c(-c2ccccc2)cn1/N=C/c1cccnc1 | inconclusive: 31.6 µM [inhibitor, partial curve, poor fit] |
| CC1(C)C=Cc2c(ccc3c2OC[C@@H](c2ccc(O)cc2O)C3)O1 | inconclusive: 50.1 µM [inhibitor, partial curve, poor fit] |
